Reference: the supplement of paper PMC10849652
The other results are listed elsewhere or left out.

By UniProt entry, the sequences of proteins in these tests, tags left out. Where a name states a change or a piece, a line headed by the entry shows the natural chain unless it says otherwise.
UniProt Q8IXQ4: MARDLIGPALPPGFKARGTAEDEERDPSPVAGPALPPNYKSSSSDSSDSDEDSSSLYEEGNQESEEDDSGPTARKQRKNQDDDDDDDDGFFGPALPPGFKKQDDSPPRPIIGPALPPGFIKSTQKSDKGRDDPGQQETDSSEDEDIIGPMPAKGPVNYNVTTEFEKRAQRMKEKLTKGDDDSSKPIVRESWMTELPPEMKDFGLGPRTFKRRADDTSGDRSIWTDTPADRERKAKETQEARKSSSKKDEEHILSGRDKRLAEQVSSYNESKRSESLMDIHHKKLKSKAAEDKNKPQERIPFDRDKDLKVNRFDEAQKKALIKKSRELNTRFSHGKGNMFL
UniProt P16278: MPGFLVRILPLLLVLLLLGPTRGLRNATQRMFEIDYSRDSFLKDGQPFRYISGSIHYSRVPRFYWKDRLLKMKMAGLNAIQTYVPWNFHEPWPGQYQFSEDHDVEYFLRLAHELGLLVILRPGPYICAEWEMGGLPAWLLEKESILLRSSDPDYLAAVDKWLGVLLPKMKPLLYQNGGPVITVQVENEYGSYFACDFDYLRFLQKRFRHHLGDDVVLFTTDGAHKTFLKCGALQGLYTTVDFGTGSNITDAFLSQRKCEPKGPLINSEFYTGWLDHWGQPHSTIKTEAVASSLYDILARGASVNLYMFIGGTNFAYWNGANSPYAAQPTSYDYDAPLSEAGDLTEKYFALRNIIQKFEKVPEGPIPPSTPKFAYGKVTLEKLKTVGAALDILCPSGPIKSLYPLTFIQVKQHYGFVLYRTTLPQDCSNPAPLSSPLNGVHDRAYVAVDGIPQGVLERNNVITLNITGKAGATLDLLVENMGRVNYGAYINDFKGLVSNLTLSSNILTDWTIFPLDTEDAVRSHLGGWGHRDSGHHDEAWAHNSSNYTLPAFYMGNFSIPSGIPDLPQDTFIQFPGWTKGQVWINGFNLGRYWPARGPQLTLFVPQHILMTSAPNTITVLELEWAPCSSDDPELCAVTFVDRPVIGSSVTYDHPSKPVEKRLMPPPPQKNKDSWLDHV
UniProt P63218: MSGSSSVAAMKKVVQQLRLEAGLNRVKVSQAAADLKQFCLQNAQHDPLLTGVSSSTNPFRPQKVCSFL
UniProt Q9NZD2: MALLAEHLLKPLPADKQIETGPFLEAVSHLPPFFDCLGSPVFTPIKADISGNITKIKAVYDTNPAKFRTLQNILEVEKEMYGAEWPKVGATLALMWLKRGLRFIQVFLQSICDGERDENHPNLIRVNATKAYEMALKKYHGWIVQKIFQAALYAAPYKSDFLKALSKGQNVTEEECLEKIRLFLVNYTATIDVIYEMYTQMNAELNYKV
UniProt P62873, whole entry, looked up: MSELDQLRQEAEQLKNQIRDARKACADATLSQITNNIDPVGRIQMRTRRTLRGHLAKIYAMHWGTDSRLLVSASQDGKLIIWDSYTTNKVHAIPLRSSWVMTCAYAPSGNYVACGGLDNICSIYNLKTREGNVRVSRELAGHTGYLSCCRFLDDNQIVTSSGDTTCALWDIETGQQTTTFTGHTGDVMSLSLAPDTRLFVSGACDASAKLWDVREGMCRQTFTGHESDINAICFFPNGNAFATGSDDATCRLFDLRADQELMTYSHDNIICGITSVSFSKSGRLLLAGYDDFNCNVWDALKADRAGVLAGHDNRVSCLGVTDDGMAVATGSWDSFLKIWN
UniProt Q9Y248: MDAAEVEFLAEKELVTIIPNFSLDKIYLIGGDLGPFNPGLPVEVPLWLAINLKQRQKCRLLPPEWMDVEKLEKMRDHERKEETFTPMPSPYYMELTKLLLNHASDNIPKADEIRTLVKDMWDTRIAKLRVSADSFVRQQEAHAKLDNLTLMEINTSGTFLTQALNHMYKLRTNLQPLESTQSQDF
UniProt Q9BXV9: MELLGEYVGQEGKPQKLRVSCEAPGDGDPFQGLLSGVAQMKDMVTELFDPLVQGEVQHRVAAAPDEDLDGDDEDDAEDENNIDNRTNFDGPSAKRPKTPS
UniProt Q86YR5: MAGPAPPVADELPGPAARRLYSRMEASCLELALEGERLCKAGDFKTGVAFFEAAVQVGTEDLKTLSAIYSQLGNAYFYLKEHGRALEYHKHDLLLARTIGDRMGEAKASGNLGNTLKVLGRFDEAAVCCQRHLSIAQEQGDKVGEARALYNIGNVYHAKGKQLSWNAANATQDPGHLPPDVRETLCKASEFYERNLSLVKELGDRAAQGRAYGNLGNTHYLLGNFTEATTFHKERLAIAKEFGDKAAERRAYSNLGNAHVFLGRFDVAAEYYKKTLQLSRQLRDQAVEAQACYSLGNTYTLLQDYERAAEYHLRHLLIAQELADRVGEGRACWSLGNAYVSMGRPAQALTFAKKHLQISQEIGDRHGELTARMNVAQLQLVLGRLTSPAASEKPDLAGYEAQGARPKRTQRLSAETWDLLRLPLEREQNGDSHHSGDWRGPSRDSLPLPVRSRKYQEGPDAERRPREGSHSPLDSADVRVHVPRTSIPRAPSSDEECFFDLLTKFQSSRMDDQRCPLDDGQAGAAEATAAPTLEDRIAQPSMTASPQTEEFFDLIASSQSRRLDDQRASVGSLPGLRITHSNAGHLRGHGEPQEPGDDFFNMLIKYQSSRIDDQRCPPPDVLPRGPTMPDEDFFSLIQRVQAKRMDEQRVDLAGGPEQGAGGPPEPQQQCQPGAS
UniProt Q9Y5P6: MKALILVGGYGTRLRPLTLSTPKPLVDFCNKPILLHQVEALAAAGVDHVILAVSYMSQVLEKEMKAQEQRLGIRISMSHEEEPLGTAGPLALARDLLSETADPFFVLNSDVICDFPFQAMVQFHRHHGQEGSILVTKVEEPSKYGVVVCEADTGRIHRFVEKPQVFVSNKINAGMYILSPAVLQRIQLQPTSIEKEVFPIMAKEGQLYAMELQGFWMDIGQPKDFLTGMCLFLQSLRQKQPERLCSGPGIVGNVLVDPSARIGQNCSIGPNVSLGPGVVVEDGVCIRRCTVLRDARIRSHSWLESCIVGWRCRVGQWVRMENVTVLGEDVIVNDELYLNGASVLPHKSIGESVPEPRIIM
UniProt P04899, whole entry, looked up: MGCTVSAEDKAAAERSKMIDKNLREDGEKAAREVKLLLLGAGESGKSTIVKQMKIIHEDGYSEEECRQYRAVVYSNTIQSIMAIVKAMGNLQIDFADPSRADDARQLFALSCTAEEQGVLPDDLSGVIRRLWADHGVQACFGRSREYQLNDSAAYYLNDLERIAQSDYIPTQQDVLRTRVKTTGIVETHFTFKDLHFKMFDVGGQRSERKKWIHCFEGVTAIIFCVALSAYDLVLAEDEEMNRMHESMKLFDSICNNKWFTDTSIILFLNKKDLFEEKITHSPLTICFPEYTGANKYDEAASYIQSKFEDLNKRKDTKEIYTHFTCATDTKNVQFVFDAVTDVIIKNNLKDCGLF
UniProt Q8TBA6: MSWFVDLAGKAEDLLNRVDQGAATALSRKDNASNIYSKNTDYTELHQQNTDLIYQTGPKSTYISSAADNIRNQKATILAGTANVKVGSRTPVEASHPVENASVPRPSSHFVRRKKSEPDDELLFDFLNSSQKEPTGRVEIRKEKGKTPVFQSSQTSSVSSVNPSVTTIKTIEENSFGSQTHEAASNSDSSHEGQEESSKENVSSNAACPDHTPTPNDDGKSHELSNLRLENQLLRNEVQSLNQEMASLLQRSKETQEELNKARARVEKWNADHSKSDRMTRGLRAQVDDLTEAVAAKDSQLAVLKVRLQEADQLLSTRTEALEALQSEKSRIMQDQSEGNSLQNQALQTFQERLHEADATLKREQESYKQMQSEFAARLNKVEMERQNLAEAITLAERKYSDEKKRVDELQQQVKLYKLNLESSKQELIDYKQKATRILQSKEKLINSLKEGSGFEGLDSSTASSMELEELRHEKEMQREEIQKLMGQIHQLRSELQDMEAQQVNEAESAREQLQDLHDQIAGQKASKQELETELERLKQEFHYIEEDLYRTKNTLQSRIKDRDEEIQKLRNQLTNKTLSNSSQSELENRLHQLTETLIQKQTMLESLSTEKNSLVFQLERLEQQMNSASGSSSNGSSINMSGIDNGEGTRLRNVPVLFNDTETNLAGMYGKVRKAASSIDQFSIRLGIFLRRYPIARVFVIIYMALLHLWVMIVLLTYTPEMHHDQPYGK
UniProt Q9NQX3: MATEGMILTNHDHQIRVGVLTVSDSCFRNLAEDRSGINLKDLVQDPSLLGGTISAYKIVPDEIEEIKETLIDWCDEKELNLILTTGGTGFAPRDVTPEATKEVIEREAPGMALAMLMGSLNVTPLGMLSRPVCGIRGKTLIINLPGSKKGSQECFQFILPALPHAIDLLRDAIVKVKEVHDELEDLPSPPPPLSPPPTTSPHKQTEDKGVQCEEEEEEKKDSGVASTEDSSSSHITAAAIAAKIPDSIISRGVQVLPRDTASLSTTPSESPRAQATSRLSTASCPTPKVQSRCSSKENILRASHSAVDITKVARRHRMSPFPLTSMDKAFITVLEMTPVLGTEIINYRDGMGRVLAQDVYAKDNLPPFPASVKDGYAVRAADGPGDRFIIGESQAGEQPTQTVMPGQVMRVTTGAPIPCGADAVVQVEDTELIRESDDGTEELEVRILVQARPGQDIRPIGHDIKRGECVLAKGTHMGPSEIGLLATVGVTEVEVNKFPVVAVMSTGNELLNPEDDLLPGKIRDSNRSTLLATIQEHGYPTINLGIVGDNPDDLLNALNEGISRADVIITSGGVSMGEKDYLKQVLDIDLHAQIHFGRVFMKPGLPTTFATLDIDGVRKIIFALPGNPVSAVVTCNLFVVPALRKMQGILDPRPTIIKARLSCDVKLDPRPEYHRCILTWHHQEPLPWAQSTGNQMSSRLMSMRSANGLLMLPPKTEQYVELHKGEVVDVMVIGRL
UniProt O14908: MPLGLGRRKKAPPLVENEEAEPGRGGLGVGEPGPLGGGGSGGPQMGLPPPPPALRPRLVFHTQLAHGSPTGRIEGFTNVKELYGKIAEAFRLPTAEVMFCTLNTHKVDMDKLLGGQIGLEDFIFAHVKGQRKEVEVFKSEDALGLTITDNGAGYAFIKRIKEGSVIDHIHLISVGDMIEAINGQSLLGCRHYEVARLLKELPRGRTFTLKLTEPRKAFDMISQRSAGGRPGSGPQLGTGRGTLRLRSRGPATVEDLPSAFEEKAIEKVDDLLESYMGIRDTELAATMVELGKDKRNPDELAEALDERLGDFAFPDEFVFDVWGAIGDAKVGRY
UniProt Q9BVM4: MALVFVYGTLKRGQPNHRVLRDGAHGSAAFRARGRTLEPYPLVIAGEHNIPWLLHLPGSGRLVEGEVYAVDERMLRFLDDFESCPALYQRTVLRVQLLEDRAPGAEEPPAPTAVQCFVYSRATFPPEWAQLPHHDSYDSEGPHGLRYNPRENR
UniProt Q9Y2X7: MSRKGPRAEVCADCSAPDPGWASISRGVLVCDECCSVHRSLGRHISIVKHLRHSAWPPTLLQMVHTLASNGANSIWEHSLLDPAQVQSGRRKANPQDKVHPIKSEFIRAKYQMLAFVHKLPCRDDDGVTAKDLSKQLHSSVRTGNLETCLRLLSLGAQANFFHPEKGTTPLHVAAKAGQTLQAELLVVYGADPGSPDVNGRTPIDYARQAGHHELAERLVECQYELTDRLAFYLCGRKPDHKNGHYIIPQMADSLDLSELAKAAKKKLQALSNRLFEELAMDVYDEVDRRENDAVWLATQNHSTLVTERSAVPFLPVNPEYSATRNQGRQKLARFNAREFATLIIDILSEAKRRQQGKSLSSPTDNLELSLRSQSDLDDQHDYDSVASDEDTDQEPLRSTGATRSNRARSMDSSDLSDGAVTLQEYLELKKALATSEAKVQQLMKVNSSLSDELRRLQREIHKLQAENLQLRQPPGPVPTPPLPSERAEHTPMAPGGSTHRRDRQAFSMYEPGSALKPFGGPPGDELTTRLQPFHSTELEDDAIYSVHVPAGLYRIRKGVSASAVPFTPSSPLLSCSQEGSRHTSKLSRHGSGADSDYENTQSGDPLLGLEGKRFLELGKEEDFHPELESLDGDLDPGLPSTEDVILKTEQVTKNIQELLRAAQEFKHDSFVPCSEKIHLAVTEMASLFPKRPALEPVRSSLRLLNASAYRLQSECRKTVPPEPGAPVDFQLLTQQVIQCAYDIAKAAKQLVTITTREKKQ
UniProt Q9H4G4: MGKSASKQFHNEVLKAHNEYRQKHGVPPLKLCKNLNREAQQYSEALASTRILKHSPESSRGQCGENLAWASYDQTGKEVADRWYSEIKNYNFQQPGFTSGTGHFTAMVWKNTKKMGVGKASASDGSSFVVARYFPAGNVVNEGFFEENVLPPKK
UniProt O60547: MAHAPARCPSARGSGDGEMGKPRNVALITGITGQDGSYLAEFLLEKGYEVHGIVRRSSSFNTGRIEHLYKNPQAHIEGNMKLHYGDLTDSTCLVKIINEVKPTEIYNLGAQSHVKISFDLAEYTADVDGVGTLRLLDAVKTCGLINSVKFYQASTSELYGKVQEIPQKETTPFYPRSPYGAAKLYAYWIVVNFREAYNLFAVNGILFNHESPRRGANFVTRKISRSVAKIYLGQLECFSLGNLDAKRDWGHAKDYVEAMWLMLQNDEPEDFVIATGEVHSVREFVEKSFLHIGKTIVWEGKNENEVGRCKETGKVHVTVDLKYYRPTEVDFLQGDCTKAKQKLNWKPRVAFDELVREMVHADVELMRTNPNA

How the values were obtained:
Test in all cases: log2 fold change, soluble protein after heating vs DMSO (PISA); higher = thermal stabilisation; K562 lysate, 10 uM; active = over 0.2 and 3.5 SD of the protein, either way, in both replicates (recomputed)
[1] = compound: NCC(=O)Nc1ccc(-n2nc(C(F)(F)F)cc2-c2ccc3c(ccc4ccccc43)c2)cc1
Summary of the method: (§1)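 Log-two fold change in thermal stability relative to solvent controls is reported from duplicates. For each sample, crude K562 extract from dounce-homogenised pellets in PBS pH 7.4 with 1 mM MgCl2, at 1 mg/mL protein, was treated with 10 μM compound for 30 min. Aliquots heated for 3 min across 48°C-58°C were pooled, brought to 0.5% NP-40 at 4°C and cleared at 21,000xg for 90 min. The supernatant was quantified by TMTpro 16plex LC-MS/MS with channel sums equalised.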

vorinostat = compound: O=C(CCCCCCC(=O)Nc1ccccc1)NO [vorinostat]
Summary of the method: as §1

silmitasertib = compound: O=C(O)c1ccc2c(c1)nc(Nc1cccc(Cl)c1)c1ccncc12 [silmitasertib]
Summary of the method: as §1

[2] = compound: O=C1NC(=O)C(c2cnc3ccccn23)=C1c1cn2c3c(cc(F)cc13)CN(C(=O)N1CCCCC1)CC2
Summary of the method: as §1

entospletinib = compound: c1cn2cc(-c3ccc4cn[nH]c4c3)nc(Nc3ccc(N4CCOCC4)cc3)c2n1 [entospletinib]
Summary of the method: as §1

| Target | log2 fold change [1] | log2 fold change (vorinostat) | log2 fold change (silmitasertib) | log2 fold change [2] | log2 fold change (entospletinib) |
| --- | --- | --- | --- | --- | --- |
| GK (UniProt P32189) | inactive: 0.003 | inactive: 0.126 | inactive: -0.019 | inactive: -0.059 | inactive: -0.03 |
| GPALPP1 (UniProt Q8IXQ4) | inactive: -0.009 | inactive: 0.158 | inactive: 0 | inactive: 0.049 | inactive: 0 |
| GLB1 (UniProt P16278) | inactive: 0.003 | inactive: -0.013 | inactive: -0.03 | inactive: -0.043 | inactive: -0.018 |
| GLG1 isoform 2 (UniProt Q92896) | inactive: -0.043 | inactive: 0.107 | inactive: -0.002 | inactive: -0.01 | inactive: -0.054 |
| GNG5 (UniProt P63218) | inactive: -0.11 | inactive: -0.022 | inactive: -0.126 | inactive: 0.035 | inactive: 0.011 |
| GOLGA7 (UniProt Q7Z5G4) | inactive: 0.032 | inactive: 0.091 | inactive: 0.018 | inactive: -0.028 | inactive: 0.008 |
| GLTP (UniProt Q9NZD2) | inactive: -0.166 | inactive: 0.024 | inactive: -0.062 | inactive: 0.091 | inactive: -0.071 |
| GNB1 (UniProt P62873) | inactive: 0.026 | inactive: 0.064 | inactive: 0.041 | inactive: -0.037 | inactive: 0.054 |
| GINS2 (UniProt Q9Y248) | inactive: -0.204 | inactive: 0.06 | inactive: -0.013 | inactive: 0.03 | inactive: -0.041 |
| GOT1 (UniProt P17174) | inactive: 0.027 | inactive: 0.136 | inactive: -0.017 | inactive: 0.008 | inactive: 0.015 |
| GON7 (UniProt Q9BXV9) | inactive: 0.025 | inactive: 0.101 | inactive: 0.001 | inactive: 0.019 | inactive: -0.159 |
| GPSM1 (UniProt Q86YR5) | inactive: 0.069 | inactive: -0.162 | inactive: 0.056 | inactive: 0.029 | inactive: -0.051 |
| GMPPB isoform 2 (UniProt Q9Y5P6) | inactive: 0.022 | inactive: -0.089 | inactive: -0.011 | inactive: -0.006 | inactive: -0.028 |
| GLB1L2 (UniProt Q8IW92) | inactive: 0.018 | inactive: -0.023 | inactive: -0.045 | inactive: -0.029 | inactive: -0.012 |
| GNAI2 (UniProt P04899) | inactive: -0.036 | inactive: -0.045 | inactive: 0.017 | inactive: 0.018 | inactive: -0.031 |
| GOLGA5 (UniProt Q8TBA6) | inactive: -0.007 | inactive: 0.088 | inactive: 0.027 | inactive: -0.019 | inactive: -0.053 |
| GPHN isoform 2 (UniProt Q9NQX3) | inactive: 0.031 | inactive: 0.033 | inactive: -0.056 | inactive: -0.005 | inactive: -0.004 |
| GIPC1 (UniProt O14908) | inactive: -0.036 | inactive: 0.029 | inactive: 0.028 | inactive: -0.034 | inactive: 0.004 |
| GGACT (UniProt Q9BVM4) | inactive: 0.094 | inactive: -0.255 | inactive: 0.017 | inactive: 0.203 | inactive: 0.004 |
| GIT1 (UniProt Q9Y2X7) | inactive: -0.043 | active: -0.32 | inactive: 0.009 | inactive: 0.006 | inactive: -0.005 |
| GLIPR2 (UniProt Q9H4G4) | inactive: -0.069 | inactive: 0.023 | inactive: -0.004 | inactive: 0.108 | inactive: -0.091 |
| GMDS (UniProt O60547) | inactive: 0.027 | active: -0.309 | inactive: 0.041 | inactive: -0.016 | inactive: 0.032 |
| GPATCH1 (UniProt Q9BRR8) | inactive: 0.029 | inactive: -0.036 | inactive: -0.054 | inactive: -0.041 | inactive: 0.035 |
| GPSM2 (UniProt P81274) | inactive: 0.108 | inactive: -0.152 | inactive: 0.129 | inactive: 0.074 | inactive: -0.04 |

An excerpt from above with just log2 fold change [1].

| Target | log2 fold change [1] |
| --- | --- |
| GGACT (UniProt Q9BVM4) | inactive: 0.094 |
| GIT1 (UniProt Q9Y2X7) | inactive: -0.043 |
